Source: paper PMC9748900, “Unconventional isoquinoline-based SERMs elicit fulvestrant-like transcriptional programs in ER+ breast cancer cells” (NPJ Breast Cancer, 2022)

Test system: transcriptome of T47D breast cancer cells
Assay: RNA sequencing of T47D cells
Assay type: cell-based
Details: for transcripts overlapping with T6I-29-1A / unique transcripts: 1 μM + 1 nM E2 versus E2-only, 16 h
Procedure: We next used RNA transcriptomic analysis (RNAseq) to identify differentially affected genes. […] All sequencing runs were performed with three replicates per treatment.
T47D breast cancer cells were grown in 6-well dishes at 50,000 cells per well. […] After 24 h, they were placed in serum-starved media for 48 h. […] RNA was isolated using a Qiagen RNeasy Kit then sent to Novogene for sequencing and bioinformatics analysis.

Row | SMILES | downregulated genes (1 nM E2 versus veh) | upregulated genes (1 nM E2 versus veh) | transcripts overlapping with T6I-29-1A | unique transcripts
1 | C[C@]12CC[C@@H]3c4ccc(O)cc4CC[C@H]3[C@@H]1CC[C@@H]2O [E2, 17β-estradiol] | 4394 | 4709 | – | –
2 | C[C@]12CC[C@@H]3c4ccc(O)cc4C[C@@H](CCCCCCCCC[S+]([O-])CCCC(F)(F)C(F)(F)F)[C@H]3[C@@H]1CC[C@@H]2O (some centres unmarked) [ICI, fulvestrant] | – | – | 116 | 245
3 | Oc1ccc2c(c1)CC[C@H](c1ccccc1)[C@@H]2c1ccc(OCCN2CCCC2)cc1 [Laso, lasofoxifene] | – | – | 77 | 158
4 | CCNCCc1ccc(CN(CC)c2cc(OC)ccc2[C@@H]2CCc3cc(O)ccc3C2)cc1 [RAD1901, elacestrant] | – | – | 73 | 116
